Measurements from patent US20120082692A1.
No constants are given. Whether binding was seen depends on the method and setting. For part of these data: A result given as binding can be weak or reduced; the word gives no strength.

Assays:
HLA-A*2402 (human) [1] = experiment: condition: RA > 100 (peptide tested from 100 µM to 0.1 µM); T2-A24 cell surface HLA-A*2402 expression after 16 h with peptide, stained with mAb 0041HA; relative affinity vs reference peptide … (SEQ ID NO: 111)
HLA-A*2402 (human) [2] = experiment: T2-A24 cell HLA-A*2402 surface expression assay, mAb 0041HA staining
HLA-A*2402 (human) [3] = experiment: T2-A24 cell HLA-A*2402 surface expression assay, mAb 0041HA staining; grade of relative affinity

binding (HLA-A*2402 (human) [1]) | binding (HLA-A*2402 (human) [2]) | binding (HLA-A*2402 (human) [3]) | Binder
no binding |  |  | PYDGIPARE [Her2/neu 922]
no binding |  |  | PYNYLSTDV [Her2/neu 300]
no binding |  |  | PYGVLLKTH [TERT 403]
no binding |  |  | RYEFLWGPR [MAGE 261]
 | binds | binds | PYGCLLDHV [Her2/neu 802]
